The list is a part of this screen's results and no random one: it gathers tests that were run many times, whatever their T/C, doses with no T/C, and many T/C values between a quarter and a half above the control. Other doses and runs of a compound stand elsewhere. T/C gives the treated animals as a percentage of the vehicle group. Some doses have a count of surviving animals in place of a T/C: the source files T/C as zero there, which appears to mark a toxic dose or a test without result, not a measured value. Some survivor counts are full or nearly so, which does not show that the dose was tolerated: the source hardly ever lists a survival T/C far under the control, and the zero likely stands for such cases as well. Counts of survivors are from the toxicity check (mostly the fifth day) where no day follows; animals may have died later. Schedule codes are those of the source, taken here to give the interval after Q, in days (D) or hours (H), and the number of doses after X. Some entries were tested several times; the results are listed from low to high. Counts like (3×) stand for listed records that agree. Where survival is the endpoint, this PubChem deposit counts one and a half times the control or more as active, and values a quarter to a half above the control carry no call in these data; other NCI protocols may use other cut-offs. Some T/C values are followed by the survivors on the day toxicity was checked, most often the fifth; where none is given, no animal had died by that day. Some schedules carry Z or #; the key to these is not given.
System: P388 leukemia ip, CD2F1 mice, survival T/C
Assay: NCI In Vivo Anticancer Drug Screen. Data for tumor model P388 Leukemia (intraperitoneal) in CD2F1 (CDF1) mice
Details: T/C endpoint: median survival time, higher T/C = longer survival

In the case of `COc1cccc2c1C(=O)c1c(O)c3c(c(O)c1C2=O)C[C@@](O)(C(=O)CO)C[C@@H]3OC1CC(N)C(O)C(C)O1` (some centres not stated), the T/C (dose: 2.0 mg/kg/injection, schedule: Q04DX003 (ip), vehicle: water, evaluated on day 30, list 2 of 2) was 109 (2×), 111, 113, 114, 118, 120 (2×), 121 (2×), 122 (2×), 123 (2×), 125, 126 (2×), 127 (2×), 128, 129 (2×), 130, 132, 133, 135 (2×), 137, 138, 141, 144, 145, 145 [5 of 6 alive on day 9], 157, 163, 210 % of control, the T/C (dose: 2.0 mg/kg/injection, schedule: Q04DX003 (ip), vehicle: water, evaluated on day 35) was 102, 118 (2×), 120, 121, 124, 125, 128, 130, 131, 133, 136, 137, 144 % of control and the T/C (dose: 2.0 mg/kg/injection, schedule: Q04DX003 (ip), vehicle: water, evaluated on day 40) was 111, 121, 128, 138, 153 % of control. The T/C (dose: 2.0 mg/kg/injection, schedule: Q04DX003 (ip), vehicle: water, evaluated on day 45) was 105, 108, 112, 112 [5 of 6 alive on day 9], 113, 115, 117 (2×), 118, 118 [5 of 6 alive on day 9], 119, 120 (2×), 123, 125 (3×), 126 (3×), 127 (5×), 128 (4×), 129 (3×), 131 (2×), 134 (2×), 135 (2×), 136, 137, 138, 139, 139 [5 of 6 alive on day 9], 142, 144 (2×), 148, 157, 171, 192 (4×), 224, 226 % of control, the T/C (dose: 2.0 mg/kg/injection, schedule: Q04DX003 (ip), vehicle: water, evaluated on day 50) was 110, 111, 120, 126, 132 % of control and the T/C (dose: 2.0 mg/kg/injection, schedule: Q04DX003 (ip), vehicle: water, evaluated on day 60) was 127 and 136 % of control. The T/C (dose: 2.0 mg/kg/injection, schedule: Q## X001 (ip), vehicle: saline) was 93, 100, 102 (2×), 119, 124, 130 % of control, the T/C (dose: 2.16 mg/kg/injection, schedule: Q04DX003 (ip), vehicle: saline, evaluated on day 9) was 120 % of control and the T/C (dose: 2.16 mg/kg/injection, schedule: Q04DX003 (ip), vehicle: saline, evaluated on day 45) was 192 and 193 % of control. The T/C (dose: 2.16 mg/kg/injection, schedule: Q04DX003 (ip), vehicle: saline, evaluated on day 60) was 219 % of control, the T/C (dose: 2.5 mg/kg/injection, schedule: Q01DX001 (ip), vehicle: water, evaluated on day 5) was 123 % of control and the T/C (dose: 2.5 mg/kg/injection, schedule: Q01DX001 (ip), vehicle: water, evaluated on day 30) was 163 and 209 % of control. For the same compound, the T/C (dose: 2.5 mg/kg/injection, schedule: Q01DX001 (ip), vehicle: water, evaluated on day 45) was 157, 158 (2×), 164, 175, 178, 187, 197 % of control, the T/C (dose: 2.5 mg/kg/injection, schedule: Q04DX003 (ip), vehicle: saline) was 149 % of control and the T/C (dose: 2.5 mg/kg/injection, schedule: Q04DX003 (ip), vehicle: water) was 141 % of control. The T/C (dose: 2.7 mg/kg/injection, schedule: Q04DX003 (ip), vehicle: saline, evaluated on day 45) was 120, 160, 163, 175, 182, 189, 194, 205, 211, 218, 222 % of control, the T/C (dose: 2.7 mg/kg/injection, schedule: Q04DX003 (ip), vehicle: saline, evaluated on day 60) was 184 % of control and the T/C (dose: 3.0 mg/kg/injection, schedule: Q01DX009 (ip), vehicle: saline, evaluated on day 30) was 118 % of control [9 of 10 alive]. For the same compound, the T/C (dose: 3.0 mg/kg/injection, schedule: Q01DX009 (ip), vehicle: saline, evaluated on day 45) was 264 and 364 % of control, the T/C (dose: 3.0 mg/kg/injection, schedule: Q01DX009 (ip), vehicle: saline, evaluated on day 60) was 87 and 90 % of control [9 of 10 alive] and the T/C (dose: 3.0 mg/kg/injection, schedule: Q04DX003 (ip), vehicle: saline, evaluated on day 10) was 114 % of control [8 of 9 alive]. The T/C (dose: 3.0 mg/kg/injection, schedule: Q04DX003 (ip), vehicle: saline, evaluated on day 30) was 107 (2×), 132 [survivors not given], 150 % of control [survivors not given], the T/C (dose: 3.0 mg/kg/injection, schedule: Q04DX003 (ip), vehicle: saline, evaluated on day 60) was 181 % of control and the T/C (dose: 3.0 mg/kg/injection, schedule: Q04DX003 (ip), vehicle: water, evaluated on day 30) was 130 % of control. For the same compound, the T/C (dose: 3.0 mg/kg/injection, schedule: Q04DX003 (ip), vehicle: water, evaluated on day 45) was 127 % of control, the T/C (dose: 3.13 mg/kg/injection, schedule: Q01DX009 (ip), vehicle: water, evaluated on day 30) was 86, 90, 95, 183 % of control and the T/C (dose: 3.13 mg/kg/injection, schedule: Q01DX009 (ip), vehicle: water, evaluated on day 45) was 86 (2×), 87, 100 [5 of 6 alive], 105 % of control. The survivor count (dose: 3.13 mg/kg/injection, schedule: Q01DX009 (ip), vehicle: water) was 0 of 6, 4 of 6, 5 of 6, 3 of 3 (2×), 5 of 5, 6 of 6 (3×), the T/C (dose: 3.6 mg/kg/injection, schedule: Q04DX003 (ip), vehicle: saline, evaluated on day 9) was 133 % of control and the T/C (dose: 3.6 mg/kg/injection, schedule: Q04DX003 (ip), vehicle: saline, evaluated on day 45) was 152 and 190 % of control. The T/C (dose: 3.6 mg/kg/injection, schedule: Q04DX003 (ip), vehicle: saline, evaluated on day 60) was 192 and 292 % of control, the T/C (dose: 4.0 mg/kg/injection, schedule: Q01DX001 (ip), vehicle: Klucel (hydroxypropylcellulose) (HPC)) was 125 % of control and the T/C (dose: 4.0 mg/kg/injection, schedule: Q01DX001 (ip), vehicle: other) was 146 % of control [7 of 10 alive]. The T/C (dose: 4.0 mg/kg/injection, schedule: Q01DX001 (ip), vehicle: saline, evaluated on day 3) was 190 % of control, the T/C (dose: 4.0 mg/kg/injection, schedule: Q01DX001 (ip), vehicle: saline, evaluated on day 5) was 94, 98, 104, 113, 123, 126, 146, 159 % of control and the T/C (dose: 4.0 mg/kg/injection, schedule: Q01DX001 (ip), vehicle: saline, evaluated on day 6) was 200 % of control. For the same compound, the T/C (dose: 4.0 mg/kg/injection, schedule: Q01DX001 (ip), vehicle: saline, evaluated on day 7) was 157, 165, 171, 176 % of control, the T/C (dose: 4.0 mg/kg/injection, schedule: Q01DX001 (ip), vehicle: saline, evaluated on day 9) was 131 and 144 % of control and the T/C (dose: 4.0 mg/kg/injection, schedule: Q01DX001 (ip), vehicle: saline, evaluated on day 30) was 137, 157, 186 % of control. The T/C (dose: 4.0 mg/kg/injection, schedule: Q01DX001 (ip), vehicle: saline, evaluated on day 35) was 161 % of control, the T/C (dose: 4.0 mg/kg/injection, schedule: Q01DX001 (ip), vehicle: saline, evaluated on day 45) was 131 % of control and the T/C (dose: 4.0 mg/kg/injection, schedule: Q01DX001 (ip), vehicle: saline, evaluated on day 60) was 132 % of control. The survivor count (dose: 4.0 mg/kg/injection, schedule: Q01DX005 (ip), vehicle: water) was 4 of 4, the T/C (dose: 4.0 mg/kg/injection, schedule: Q01DX009 (ip), vehicle: saline, evaluated on day 5) was 91 and 93 % of control and the T/C (dose: 4.0 mg/kg/injection, schedule: Q01DX009 (ip), vehicle: saline, evaluated on day 30) was 169 % of control. For the same compound, the T/C (dose: 4.0 mg/kg/injection, schedule: Q01DX009 (ip), vehicle: saline, evaluated on day 45) was 86, 89, 100 % of control, the T/C (dose: 4.0 mg/kg/injection, schedule: Q01DX009 (ip), vehicle: saline, evaluated on day 60) was 86 and 161 % of control and the survivor count (dose: 4.0 mg/kg/injection, schedule: Q01DX009 (ip), vehicle: saline) was 9 of 10, 10 of 10, 6 of 6 (2×). For the same compound, the T/C (dose: 4.0 mg/kg/injection, schedule: Q01DX009 (ip), vehicle: water, evaluated on day 5) was 76 % of control, the T/C (dose: 4.0 mg/kg/injection, schedule: Q01DX009 (ip), vehicle: water, evaluated on day 30) was 86, 87, 89, 90, 91, 97, 100, 101, 118, 120 % of control and the T/C (dose: 4.0 mg/kg/injection, schedule: Q01DX009 (ip), vehicle: water, evaluated on day 45) was 88, 90, 94, 108, 111 % of control. For the same compound, the survivor count (dose: 4.0 mg/kg/injection, schedule: Q01DX009 (ip), vehicle: water) was 3 of 4, 5 of 6 (2×), 3 of 3 (2×), 5 of 5, 6 of 6 (2×), 8 of 8.

— PubChem BioAssay AID330 (DTP/NCI, 2004)
